Assay results as given in publication PMC8505768.
Where two headings read alike, the source gives them in different places. Results are given in words; binding and its absence hold for the method and conditions named. Binding seen in cells or lysates may run through a third protein. These calls come from enrichment with a bait or labelling near it, and not all partners need be listed.

Amino acid sequences for entries named in this document (tags omitted).
UniProt P08238: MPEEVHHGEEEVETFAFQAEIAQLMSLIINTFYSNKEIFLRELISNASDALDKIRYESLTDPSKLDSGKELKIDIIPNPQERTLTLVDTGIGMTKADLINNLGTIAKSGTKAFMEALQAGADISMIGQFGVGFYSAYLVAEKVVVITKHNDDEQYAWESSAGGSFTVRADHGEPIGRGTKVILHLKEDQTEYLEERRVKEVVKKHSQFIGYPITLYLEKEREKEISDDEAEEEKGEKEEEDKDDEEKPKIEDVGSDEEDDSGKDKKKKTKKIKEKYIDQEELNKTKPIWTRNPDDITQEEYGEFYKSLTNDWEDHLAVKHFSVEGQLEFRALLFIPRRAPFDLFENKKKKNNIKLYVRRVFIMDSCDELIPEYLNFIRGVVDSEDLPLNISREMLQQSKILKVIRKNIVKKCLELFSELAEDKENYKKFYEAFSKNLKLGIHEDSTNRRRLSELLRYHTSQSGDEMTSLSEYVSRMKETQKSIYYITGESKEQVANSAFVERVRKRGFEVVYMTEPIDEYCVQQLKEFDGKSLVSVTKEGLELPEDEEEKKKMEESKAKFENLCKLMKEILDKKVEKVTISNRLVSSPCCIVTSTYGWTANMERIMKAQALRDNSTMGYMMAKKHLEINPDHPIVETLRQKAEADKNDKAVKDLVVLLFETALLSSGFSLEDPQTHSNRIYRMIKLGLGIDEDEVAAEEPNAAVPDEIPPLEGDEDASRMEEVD
UniProt Q9UDY2: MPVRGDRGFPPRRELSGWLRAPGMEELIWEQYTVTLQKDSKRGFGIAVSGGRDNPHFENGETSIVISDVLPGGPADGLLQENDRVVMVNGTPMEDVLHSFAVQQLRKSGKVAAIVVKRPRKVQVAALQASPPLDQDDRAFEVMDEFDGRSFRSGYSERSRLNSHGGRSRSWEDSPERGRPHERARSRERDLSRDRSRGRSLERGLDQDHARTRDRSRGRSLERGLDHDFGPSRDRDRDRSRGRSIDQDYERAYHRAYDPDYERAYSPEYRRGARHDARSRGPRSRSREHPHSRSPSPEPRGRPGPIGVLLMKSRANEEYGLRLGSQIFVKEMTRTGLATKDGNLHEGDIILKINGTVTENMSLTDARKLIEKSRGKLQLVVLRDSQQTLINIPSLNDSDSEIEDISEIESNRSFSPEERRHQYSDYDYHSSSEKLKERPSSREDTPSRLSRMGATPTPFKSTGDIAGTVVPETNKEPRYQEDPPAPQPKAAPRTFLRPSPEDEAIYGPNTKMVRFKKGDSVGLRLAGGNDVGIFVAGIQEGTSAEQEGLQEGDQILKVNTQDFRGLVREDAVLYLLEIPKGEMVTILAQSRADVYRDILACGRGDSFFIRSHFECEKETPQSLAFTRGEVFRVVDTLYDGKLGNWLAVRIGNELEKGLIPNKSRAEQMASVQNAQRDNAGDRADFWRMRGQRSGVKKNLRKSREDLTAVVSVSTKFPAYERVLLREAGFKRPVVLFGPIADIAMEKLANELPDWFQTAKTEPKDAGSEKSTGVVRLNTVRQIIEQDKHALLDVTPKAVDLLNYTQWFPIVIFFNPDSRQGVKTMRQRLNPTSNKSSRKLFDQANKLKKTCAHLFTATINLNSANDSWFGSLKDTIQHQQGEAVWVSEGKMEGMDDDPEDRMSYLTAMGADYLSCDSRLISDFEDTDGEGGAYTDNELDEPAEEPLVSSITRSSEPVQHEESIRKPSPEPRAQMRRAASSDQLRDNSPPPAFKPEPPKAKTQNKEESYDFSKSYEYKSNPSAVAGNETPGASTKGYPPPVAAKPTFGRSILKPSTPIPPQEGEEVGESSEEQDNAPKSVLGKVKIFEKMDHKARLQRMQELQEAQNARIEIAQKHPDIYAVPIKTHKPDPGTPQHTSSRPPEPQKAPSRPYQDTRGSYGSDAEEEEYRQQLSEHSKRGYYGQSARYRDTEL

Key:
[1] = biological target: T1, S100 Calcium Binding Protein A16 (lentivirus-S100A16) (human) (UniProt Q96FQ6); test: affinity purification with mass spectrometry; precipitated protein of SGC-7901 cells infected with lenti-S100A16 or lenti-scramble (empty vector); LC-MS/MS on LTQ-Orbitrap, MaxQuant
T1 sequence: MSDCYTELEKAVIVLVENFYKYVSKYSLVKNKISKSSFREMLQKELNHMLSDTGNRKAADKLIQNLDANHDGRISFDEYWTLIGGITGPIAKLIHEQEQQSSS

[2] = biological target: T1, S100 Calcium Binding Protein A16 (lentivirus-S100A16) (human); test: as above; remark: listed apart in the source

| Molecule | binding [1] | binding [2] |
| --- | --- | --- |
| HSP90AB1 (from UniProt P08238 1-724) | binds |  |
| Zonula Occludens-2 (from UniProt Q9UDY2 1-1190) | binds |  |
| JUP (protein, UniProt P14923 1-745) MEVMNLMEQPIKVTEWQQTYTYDSGIHSGANTCVPSVSSKGIMEEDEACGRQYTLKKTTTYTQGVPPSQGDLEYQMSTTARAKRVREAMCPGVSGEDSSLLLATQVEGQATNLQRLAEPSQLLKSAIVHLINYQDDAELATRALPELTKLLNDEDPVVVTKAAMIVNQLSKKEASRRALMGSPQLVAAVVRTMQNTSDLDTARCTTSILHNLSHHREGLLAIFKSGGIPALVRMLSSPVESVLFYAITTLHNLLLYQEGAKMAVRLADGLQKMVPLLNKNNPKFLAITTDCLQLLAYGNQESKLIILANGGPQALVQIMRNYSYEKLLWTTSRVLKVLSVCPSNKPAIVEAGGMQALGKHLTSNSPRLVQNCLWTLRNLSDVATKQEGLESVLKILVNQLSVDDVNVLTCATGTLSNLTCNNSKNKTLVTQNSGVEALIHAILRAGDKDDITEPAVCALRHLTSRHPEAEMAQNSVRLNYGIPAIVKLLNQPNQWPLVKATIGLIRNLALCPANHAPLQEAAVIPRLVQLLVKAHQDAQRHVAAGTQQPYTDGVRMEEIVEGCTGALHILARDPMNRMEIFRLNTIPLFVQLLYSSVENIQRVAAGVLCELAQDKEAADAIDAEGASAPLMELLHSRNEGTATYAAAVLFRISEDKNPDYRKRVSVELTNSLFKHDPAAWEAAQSMIPINEPYGDDMDATYRPMYSSDVPLDPLEMHMDMDGDYPIDTYSDGLRPPYPTADHMLA |  | binds |
